Assay results as given in the supplement of paper PMC12889115.
This is one part of the list. These are raw signals, not scaled to a control.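 In the initial screen, polymyxin B was used at a concentration that permeabilizes Salmonella's outer membrane but not its inner membrane. Maximum growth was set by DMSO wells with or without polymyxin B. Since plates varied, data were ranked per plate, and compounds giving the lowest OD600 advanced as hits.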

Tested on: Salmonella enterica serovar Typhimurium SL1344
Assay: bacterial growth OD600 after 18 h with compound and polymyxin B; higher = more bacterial growth (less inhibition)
Details: 50 µM, Mueller-Hinton broth

CN(C)C(=O)N1CCC(C(=O)N2CCCC(C(=O)c3cccc4ccccc34)C2)CC1 (centres undefined)
bacterial growth OD600 (polymyxin B 1 µg/mL): 0.762

Cc1nc2ccccc2n1Cc1cc(C(=O)NCCc2cccnc2)no1
bacterial growth OD600 (polymyxin B 1 µg/mL): 1.06

CCN1C(=O)CC(CC(=O)N(C)CC2CCCCO2)(c2cccc(C(F)(F)F)c2)C1=O (centres undefined)
bacterial growth OD600 (polymyxin B 0.75 µg/mL): 0.941

Cc1nonc1CN(C)C(=O)c1cc(Cl)ccc1OC1CCN(C2CCCC2)CC1
bacterial growth OD600 (polymyxin B 1 µg/mL): 1.05

O=C(NC1CCCCC1)c1cn(C2CC2)cc(C(=O)NC(c2ccccn2)C(F)(F)F)c1=O (centres undefined)
bacterial growth OD600 (polymyxin B 0.75 µg/mL): 0.005

O=C(NCCc1ccccc1)c1ccc(OC2CCN(C(=O)Cn3cncn3)CC2)cc1
bacterial growth OD600 (polymyxin B 1 µg/mL): 1.08

Cc1cc2ncn(Cc3cc(C(=O)N4CCSCC4)n[nH]3)c2cc1C
bacterial growth OD600 (polymyxin B 1 µg/mL): 0.83

COc1cccc(CNC(=O)C2CCN(c3nc(C)c4ccc(S(C)(=O)=O)cc4n3)CC2)c1OC
bacterial growth OD600 (polymyxin B 0.75 µg/mL): 0.896

O=C(c1ccc(OC2CCN(Cc3cc4ccccc4[nH]3)CC2)cc1)N1CCCC1
bacterial growth OD600 (polymyxin B 1 µg/mL): 1.18
